# Values from PubChem BioAssay AID686938 (Drosophila RNAi Screening Center, 2013)
# Aim: 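Knock-downs reducing store-operated calcium influx in Drosophila cells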 (primary screen)
# Cells: Drosophila S2R+ cells
# Reagent: long dsRNA against Drosophila genes, about 0.25 µg dsRNA per well, roughly 10,000 cells
# Timing: 5 days of knock-down before the calcium assay
# Challenge: thapsigargin (SERCA pump blocker) to empty calcium stores; entry signal taken 4 min after adding it
# Measurement: 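Duplicate raw fluo-4 intensities per well from a plate reader, at rest and four minutes after thapsigargin emptied calcium stores; entry-to-rest ratio filled for only some wells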
# Scale: calcium entry signal: higher = stronger calcium signal after store depletion; entry to resting ratio: higher = more calcium entry relative to resting level; resting calcium signal: higher = higher resting calcium signal
# Call rule: 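Called when the plate z-score of the entry-to-rest ratio, mean of duplicates, falls below −3; wells with low overall dye signal (Fmax z below −2) or more than five off-targets excluded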
# Meaning of the calls: active = strongly reduced calcium entry; inactive = no strong reduction
# In all, the deposit lists about 23,000 reagents; below is a random part of those that have a named target and a result. Of all reagents, 75 (0.33%) were called active. 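Raw plate signals without normalisation; calls rest on plate z-scores that were not deposited; ratio present for only 364 wells.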 Reagents against one gene are numbered here. Names joined by + are all predicted targets of the reagent. Not stated in the record: the dose of the treatment.
Target gene,dsRNA no.,"calcium entry signal, replicate 1 (fluorescence units)","calcium entry signal, replicate 2 (fluorescence units)",entry to resting ratio,"resting calcium signal, replicate 1 (fluorescence units)","resting calcium signal, replicate 2 (fluorescence units)",Outcome
Mst84Dc,1,3.17e7,2.77e7,,1.59e7,1.36e7,inactive
CG30350,1,3.52e7,2.78e7,,1.48e7,1.33e7,inactive
Prm,1,3.87e7,5.02e7,,2.01e7,2.21e7,inactive
Prm,2,4.25e7,4.51e7,,2.26e7,2.49e7,inactive
Prm,3,3.89e7,3.00e7,,2.67e7,1.34e7,inactive
Jon74E,1,4.87e7,7.97e7,,2.40e7,3.01e7,inactive
SAK,1,2.67e7,4.29e7,,1.34e7,1.87e7,inactive
SAK,2,3.88e7,3.59e7,,2.11e7,1.63e7,inactive
Tbp,1,3.29e7,3.42e7,,1.44e7,1.45e7,inactive
Tbp,2,3.13e7,2.40e7,,1.30e7,1.00e7,inactive
sc,1,3.78e7,3.70e7,2.3,1.67e7,1.60e7,inactive
Pus10,1,3.88e7,,,1.80e7,,inactive
Dcr-1,1,4.47e7,3.97e7,,2.02e7,1.79e7,inactive
Epac,1,4.56e7,2.77e7,,2.03e7,1.47e7,inactive
Epac,2,3.63e7,,,1.90e7,,inactive
Epac,3,4.04e7,4.32e7,,2.09e7,2.13e7,inactive
Pi3K92E,1,4.78e7,3.77e7,,2.34e7,1.75e7,inactive
CG13558,1,3.59e7,4.48e7,,1.84e7,2.04e7,inactive
S-Lap3,1,3.90e7,2.25e7,,2.69e7,1.08e7,inactive
CG42307 + mus312,1,2.27e7,3.41e7,,1.11e7,1.50e7,inactive
sfl,1,2.34e7,2.84e7,,1.15e7,1.33e7,inactive
sfl,2,2.90e7,5.43e7,,1.46e7,2.31e7,inactive
pic,1,2.51e7,3.63e7,,1.15e7,1.71e7,inactive
Obp85a,1,3.03e7,2.91e7,,1.47e7,1.48e7,inactive
OS9,1,3.97e7,4.19e7,,1.98e7,1.85e7,inactive
Eno,1,2.98e7,4.46e7,,1.62e7,1.82e7,inactive
RpLP2,1,2.04e7,1.55e7,,1.45e7,1.05e7,inactive
Oseg1,1,4.54e7,3.05e7,,2.81e7,1.37e7,inactive
CG5506,1,3.61e7,4.90e7,,1.74e7,1.85e7,inactive
CG1513,1,3.14e7,5.59e7,,1.55e7,2.46e7,inactive
CG1513,2,4.88e7,3.17e7,,2.30e7,1.55e7,inactive
CG1513,3,3.38e7,2.85e7,,1.58e7,1.51e7,inactive
up,1,3.80e7,3.80e7,,1.81e7,1.82e7,inactive
GAPsec,1,4.73e7,3.00e7,,2.85e7,1.33e7,inactive
CG6067,1,2.63e7,4.42e7,,1.40e7,2.10e7,inactive
smg,1,3.95e7,2.71e7,,2.91e7,1.17e7,inactive
CG40485,1,3.72e7,3.00e7,,2.02e7,1.60e7,inactive
CG3402,1,3.95e7,4.22e7,,1.90e7,2.03e7,inactive
Evi5,1,2.43e7,3.30e7,,1.12e7,1.57e7,inactive
alt,1,6.59e7,4.04e7,,3.15e7,1.82e7,inactive
